Test results as given in patent publication US20140038203A1, “METHODS FOR DETECTING OR PREDICTING KIDNEY DISEASE” (MUSC FOUNDATION FOR RESEARCH DEVELOPMENT, priority 2012, published 2014).

B1: Collagen alpha-1(XV) chain (protein, UniProt P39059 28-1388, looked up)
Collagen alpha-1(XV) chain: QTRGATETASQGHLDLTQLIGVPLPSSVSFVTGYGGFPAYSFGPGANVGRPARTLIPSTFFRDFAISVVVKPSSTRGGVLFAITDAFQKVIYLGLRLSGVEDGHQRIILYYTEPGSHVSQEAAAFSVPVMTHRWNRFAMIVQGEEVTLLVNCEEHSRIPFQRSSQALAFESSAGIFMGNAGATGLERFTGSLQQLTVHPDPRTPEELCDPEESSASGETSGLQEADGVAEILEAVTYTQASPKEAKVEPINTPPTPSSPFEDMELSGEPVPEGTLETTNMSIIQHSSPKQGSGEILNDTLEGVHSVDGDPITDSGSGAGAFLDIAEEKNLAATAAGLAEVPISTAGEAEASSVPTGGPTLSMSTENPEEGVTPGPDNEERLAATAAGEAEALASMPGEVEASGVAPGELDLSMSAQSLGEEATVGPSSEDSLTTAAAATEVSLSTFEDEEASGVPTDGLAPLTATMAPERAVTSGPGDEEDLAAATTEEPLITAGGEESGSPPPDGPPLPLPTVAPERWITPAQREHVGMKGQAGPKGEKGDAGEELPGPPEPSGPVGPTAGAEAEGSGLGWGSDVGSGSGDLVGSEQLLRGPPGPPGPPGLPGIPGKPGTDVFMGPPGSPGEDGPAGEPGPPGPEGQPGVDGATGLPGMKGEKGARGPNGSVGEKGDPGNRGLPGPPGKKGQAGPPGVMGPPGPPGPPGPPGPGCTMGLGFEDTEGSGSTQLLNEPKLSRPTAAIGLKGEKGDRGPKGERGMDGASIVGPPGPRGPPGHIKVLSNSLINITHGFMNFSDIPELVGPPGPDGLPGLPGFPGPRGPKGDTGLPGFPGLKGEQGEKGEPGAILTEDIPLERLMGKKGEPGMHGAPGPMGPKGPPGHKGEFGLPGRPGRPGLNGLKGTKGDPGVIMQGPPGLPGPPGPPGPPGAVINIKGAIFPIPVRPHCKMPVDTAHPGSPELITFHGVKGEKGSWGLPGSKGEKGDQGAQGPPGPPLDLAYLRHFLNNLKGENGDKGFKGEKGEKGDINGSFLMSGPPGLPGNPGPAGQKGETVVGPQGPPGAPGLPGPPGFGRPGDPGPPGPPGPPGPPAILGAAVALPGPPGPPGQPGLPGSRNLVTAFSNMDDMLQKAHLVIEGTFIYLRDSTEFFIRVRDGWKKLQLGELIPIPADSPPPPALSSNPHQLLPPPNPISSANYEKPALHLAALNMPFSGDIRADFQCFKQARAAGLLSTYRAFLSSHLQDLSTIVRKAERYSLPIVNLKGQVLFNNWDSIFSGHGGQFNMHIPIYSFDGRDIMTDPSWPQKVIWHGSSPHGVRLVDNYCEAWRTADTAVTGLASPLSTGKILDQKAYSCANRLIVLCIENSFMTDARK
B2: 5′(3′)-deoxyribonucleotidase, cytosolic type (protein, UniProt Q8TCD5 1-201, looked up)
5'(3')-deoxyribonucleotidase, …: MARSVRVLVDMDGVLADFEAGLLRGFRRRFPEEPHVPLEQRRGFLAREQYRALRPDLADKVASVYEAPGFFLDLEPIPGALDAVREMNDLPDTQVFICTSPLLKYHHCVGEKYRWVEQHLGPQFVERIILTRDKTVVLGDLLIDDKDTVRGQEETPSWEHILFTCCHNRHLVLPPTRRRLLSWSDNWREILDSKRGAAQRE
B3: D-dopachrome decarboxylase (protein, UniProt P30046 2-118, looked up)
D-dopachrome decarboxylase: PFLELDTNLPANRVPAGLEKRLCAAAASILGKPADRVNVTVRPGLAMALSGSTEPCAQLSISSIGVVGTAEDNRSHSAHFFEFLTKELALGQDRILIRFFPLESWQIGKIGTVMTFL
B4: Gamma-glutamyl hydrolase (protein, UniProt Q92820 25-318, looked up)
Gamma-glutamyl hydrolase: RPHGDTAKKPIIGILMQKCRNKVMKNYGRYYIAASYVKYLESAGARVVPVRLDLTEKDYEILFKSINGILFPGGSVDLRRSDYAKVAKIFYNLSIQSFDDGDYFPVWGTCLGFEELSLLISGECLLTATDTVDVAMPLNFTGGQLHSRMFQNFPTELLLSLAVEPLTANFHKWSLSVKNFTMNEKLKKFFNVLTTNTDGKIEFISTMEGYKYPVYGVQWHPEKAPYEWKNLDGISHAPNAVKTAFYLAEFFVNEARKNNHHFKSESEEEKALIYQFSPIYTGNISSFQQCYIFD
B5: Heat shock protein beta-11 (protein, UniProt Q9Y547 1-144, looked up)
Intraflagellar transport …: MRKIDLCLSSEGSEVILATSSDEKHPPENIIDGNPETFWTTTGMFPQEFIICFHKHVRIERLVIQSYFVQTLKIEKSTSKEPVDFEQWIEKDLVHTEGQLQNEEIVAHDGSATYLRFIIVSAFDHFASVHSVSAEGTVVSNLSS
B6: Fructose-1,6-bisphosphatase 1 (protein, UniProt P09467 2-338, looked up)
Fructose-1,6-bisphosphatase 1: ADQAPFDTDVNTLTRFVMEEGRKARGTGELTQLLNSLCTAVKAISSAVRKAGIAHLYGIAGSTNVTGDQVKKLDVLSNDLVMNMLKSSFATCVLVSEEDKHAIIVEPEKRGKYVVCFDPLDGSSNIDCLVSVGTIFGIYRKKSTDEPSEKDALQPGRNLVAAGYALYGSATMLVLAMDCGVNCFMLDPAIGEFILVDKDVKIKKKGKIYSLNEGYARDFDPAVTEYIQRKKFPPDNSAPYGARYVGSMVADVHRTLVYGGIFLYPANKKSPNGKLRLLYECNPMAYVMEKAGGMATTGKEAVLDVIPTDIHQRAPVILGSPDDVLEFLKVYEKHSAQ
B7: Folate receptor gamma (protein, UniProt P41439 23-245, looked up)
Folate receptor gamma: QPRSARARTDLLNVCMNAKHHKTQPSPEDELYGQCSPWKKNACCTASTSQELHKDTSRLYNFNWDHCGKMEPTCKRHFIQDSCLYECSPNLGPWIRQVNQSWRKERILNVPLCKEDCERWWEDCRTSYTCKSNWHKGWNWTSGINECPAGALCSTFESYFPTPAALCEGLWSHSFKVSNYSRGSGRCIQMWFDSAQGNPNEEVAKFYAAAMNAGAPSRGIIDS
B8: Peroxiredoxin-6 (protein, UniProt P30041 2-224, looked up)
Peroxiredoxin-6: PGGLLLGDVAPNFEANTTVGRIRFHDFLGDSWGILFSHPRDFTPVCTTELGRAAKLAPEFAKRNVKLIALSIDSVEDHLAWSKDINAYNCEEPTEKLPFPIIDDRNRELAILLGMLDPAEKDEKGMPVTARVVFVFGPDKKLKLSILYPATTGRNFDEILRVVISLQLTAEKRVATPVDWKDGDSVMVLPTIPEEEAKKLFPKGVFTKELPSGKKYLRYTPQP
B9: Inter-alpha-trypsin inhibitor heavy chain H1 (protein, UniProt P19827 35-672, looked up)
Inter-alpha-trypsin inhibitor …: SKSSEKRQAVDTAVDGVFIRSLKVNCKVTSRFAHYVVTSQVVNTANEAREVAFDLEIPKTAFISDFAVTADGNAFIGDIKDKVTAWKQYRKAAISGENAGLVRASGRTMEQFTIHLTVNPQSKVTFQLTYEEVLKRNHMQYEIVIKVKPKQLVHHFEIDVDIFEPQGISKLDAQASFLPKELAAQTIKKSFSGKKGHVLFRPTVSQQQSCPTCSTSLLNGHFKVTYDVSRDKICDLLVANNHFAHFFAPQNLTNMNKNVVFVIDISGSMRGQKVKQTKEALLKILGDMQPGDYFDLVLFGTRVQSWKGSLVQASEANLQAAQDFVRGFSLDEATNLNGGLLRGIEILNQVQESLPELSNHASILIMLTDGDPTEGVTDRSQILKNVRNAIRGRFPLYNLGFGHNVDFNFLEVMSMENNGRAQRIYEDHDATQQLQGFYSQVAKPLLVDVDLQYPQDAVLALTQNHHKQYYEGSEIVVAGRIADNKQSSFKADVQAHGEGQEFSITCLVDEEEMKKLLRERGHMLENHVERLWAYLTIQELLAKRMKVDREERANLSSQALQMSLDYGFVTPLTSMSIRGMADQDGLKPTIDKPSEDSPPLEMLGPRRTFVLSALQPSPTHSSSNTQRLPDRVTGVDTD
B10: Elongation factor 1-alpha 1 (protein, UniProt P68104 2-462, looked up)
Elongation factor 1-alpha 1: GKEKTHINIVVIGHVDSGKSTTTGHLIYKCGGIDKRTIEKFEKEAAEMGKGSFKYAWVLDKLKAERERGITIDISLWKFETSKYYVTIIDAPGHRDFIKNMITGTSQADCAVLIVAAGVGEFEAGISKNGQTREHALLAYTLGVKQLIVGVNKMDSTEPPYSQKRYEEIVKEVSTYIKKIGYNPDTVAFVPISGWNGDNMLEPSANMPWFKGWKVTRKDGNASGTTLLEALDCILPPTRPTDKPLRLPLQDVYKIGGIGTVPVGRVETGVLKPGMVVTFAPVNVTTEVKSVEMHHEALSEALPGDNVGFNVKNVSVKDVRRGNVAGDSKNDPPMEAAGFTAQVIILNHPGQISAGYAPVLDCHTAHIACKFAELKEKIDRRSGKKLEDGPKFLKSGDAAIVDMVPGKPMCVESFSDYPPLGRFAVRDMRQTVAVGVIKAVDKKAAGAGKVTKSAQKAQKAK
B11: Ephrin type-B receptor 4 (protein, UniProt P54760 16-987, looked up)
Ephrin type-B receptor 4: LEETLLNTKLETADLKWVTFPQVDGQWEELSGLDEEQHSVRTYEVCDVQRAPGQAHWLRTGWVPRRGAVHVYATLRFTMLECLSLPRAGRSCKETFTVFYYESDADTATALTPAWMENPYIKVDTVAAEHLTRKRPGAEATGKVNVKTLRLGPLSKAGFYLAFQDQGACMALLSLHLFYKKCAQLTVNLTRFPETVPRELVVPVAGSCVVDAVPAPGPSPSLYCREDGQWAEQPVTGCSCAPGFEAAEGNTKCRACAQGTFKPLSGEGSCQPCPANSHSNTIGSAVCQCRVGYFRARTDPRGAPCTTPPSAPRSVVSRLNGSSLHLEWSAPLESGGREDLTYALRCRECRPGGSCAPCGGDLTFDPGPRDLVEPWVVVRGLRPDFTYTFEVTALNGVSSLATGPVPFEPVNVTTDREVPPAVSDIRVTRSSPSSLSLAWAVPRAPSGAVLDYEVKYHEKGAEGPSSVRFLKTSENRAELRGLKRGASYLVQVRARSEAGYGPFGQEHHSQTQLDESEGWREQLALIAGTAVVGVVLVLVVIVVAVLCLRKQSNGREAEYSDKHGQYLIGHGTKVYIDPFTYEDPNEAVREFAKEIDVSYVKIEEVIGAGEFGEVCRGRLKAPGKKESCVAIKTLKGGYTERQRREFLSEASIMGQFEHPNIIRLEGVVTNSMPVMILTEFMENGALDSFLRLNDGQFTVIQLVGMLRGIASGMRYLAEMSYVHRDLAARNILVNSNLVCKVSDFGLSRFLEENSSDPTYTSSLGGKIPIRWTAPEAIAFRKFTSASDAWSYGIVMWEVMSFGERPYWDMSNQDVINAIEQDYRLPPPPDCPTSLHQLMLDCWQKDRNARPRFPQVVSALDKMIRNPASLKIVARENGGASHPLLDQRQPHYSAFGSVGEWLRAIKMGRYEESFAAAGFGSFELVSQISAEDLLRIGVTLAGHQKKILASVQHMKSQAKPGTPGGTGGPAPQY

Experiment: RRT study: LC-MS/MS urinary proteomics, AKI after cardiac surgery, RRT vs No RRT
Parameters: species or system human
Settings: direction of urinary abundance, patients who did vs did not require RRT/dialysis

Molecule | Up or Down
B1 | Up
B2 | Up
B3 | Up
B4 | Up
B5 | Up
B6 | Up
B7 | Up
B8 | Up
B9 | Up
B10 | Up
B11 | Up
